Laboratory results taken from article doi:10.1101/250936.
No constants are given. Whether binding was seen depends on the method and setting. Binding seen in cells or lysates may run through a third protein. Some entries that bind do so weakly or less than the wild type. Each block holds one molecule with its values, some of them ahead of it.

Sequences of proteins named here, by UniProt entry; tags and fusion partners are left off.
UniProt P27986: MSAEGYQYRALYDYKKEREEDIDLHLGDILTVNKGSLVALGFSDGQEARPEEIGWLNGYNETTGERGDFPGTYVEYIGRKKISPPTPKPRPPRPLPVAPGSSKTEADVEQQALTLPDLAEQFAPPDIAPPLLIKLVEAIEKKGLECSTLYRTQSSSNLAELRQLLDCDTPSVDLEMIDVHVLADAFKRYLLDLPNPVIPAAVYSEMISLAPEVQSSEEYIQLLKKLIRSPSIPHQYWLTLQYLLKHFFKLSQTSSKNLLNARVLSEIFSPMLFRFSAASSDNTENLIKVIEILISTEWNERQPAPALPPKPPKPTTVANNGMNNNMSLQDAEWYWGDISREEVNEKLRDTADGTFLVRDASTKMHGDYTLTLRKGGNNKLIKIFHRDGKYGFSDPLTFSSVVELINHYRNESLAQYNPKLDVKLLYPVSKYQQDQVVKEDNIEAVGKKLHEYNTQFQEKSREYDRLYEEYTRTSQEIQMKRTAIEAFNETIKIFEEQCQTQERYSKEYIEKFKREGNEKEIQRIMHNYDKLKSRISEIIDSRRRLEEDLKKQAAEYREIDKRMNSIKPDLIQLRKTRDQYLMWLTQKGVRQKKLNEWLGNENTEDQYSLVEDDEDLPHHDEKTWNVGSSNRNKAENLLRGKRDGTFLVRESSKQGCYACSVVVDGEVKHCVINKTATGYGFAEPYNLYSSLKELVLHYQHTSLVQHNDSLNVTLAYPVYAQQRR
UniProt Q99755: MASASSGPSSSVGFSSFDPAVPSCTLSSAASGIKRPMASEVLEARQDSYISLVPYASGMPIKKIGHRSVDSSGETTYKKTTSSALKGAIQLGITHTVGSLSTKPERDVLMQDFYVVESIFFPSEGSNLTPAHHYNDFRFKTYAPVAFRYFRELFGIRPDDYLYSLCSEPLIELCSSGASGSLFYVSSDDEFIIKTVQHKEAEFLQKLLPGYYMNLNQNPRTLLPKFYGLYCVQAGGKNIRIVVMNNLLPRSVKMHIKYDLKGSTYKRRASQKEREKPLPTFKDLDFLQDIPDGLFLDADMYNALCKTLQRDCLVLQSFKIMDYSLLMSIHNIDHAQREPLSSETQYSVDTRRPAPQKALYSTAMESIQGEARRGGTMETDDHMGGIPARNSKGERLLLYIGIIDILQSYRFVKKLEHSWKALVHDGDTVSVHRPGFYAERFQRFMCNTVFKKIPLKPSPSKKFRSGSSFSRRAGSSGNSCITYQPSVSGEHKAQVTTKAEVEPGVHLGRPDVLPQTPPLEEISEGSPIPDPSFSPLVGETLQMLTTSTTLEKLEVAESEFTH

Key:
[1] = biological target: Myc-tagged WT IQGAP1 (IQ motif-containing GTPase-activating protein 1) (UniProt P46940); assay: proximity ligation
[2] = biological target: Myc-tagged WT IQGAP1 (IQ motif-containing GTPase-activating protein 1) (UniProt P46940); assay: proximity ligation; remark: listed apart in the source
[3] = biological target: Myc-tagged WT IQGAP1 (IQ motif-containing GTPase-activating protein 1) (UniProt P46940); assay: co-IP
[4] = biological target: Myc-tagged WT IQGAP1 (IQ motif-containing GTPase-activating protein 1) (UniProt P46940); assay: co-IP; remark: listed apart in the source

binding [1]: binds
binding [2]: binds
binding [3]: binds
Molecule: Epidermal growth factor receptor (EGFR) (from UniProt P00533 25-1210)

binding [2]: binds
binding [3]: binds
Molecule: PI3K regulatory subunit p85α (from UniProt P27986 1-724)

Continued, molecule first:

Molecule: PIPKIα (from UniProt Q99755 1-562)
binding [1]: binds
binding [2]: binds
binding [3]: binds

B1: PDK1 (protein, UniProt O15530 1-556)
chain: MARTTSQLYDAVPIQSSVVLCSCPSPSMVRTQTESSTPPGIPGGSRQGPAMDGTAAEPRPGAGSLQHAQPPPQPRKKRPEDFKFGKILGEGSFSTVVLARELATSREYAIKILEKRHIIKENKVPYVTRERDVMSRLDHPFFVKLYFTFQDDEKLYFGLSYAKNGELLKYIRKIGSFDETCTRFYTAEIVSALEYLHGKGIIHRDLKPENILLNEDMHIQITDFGTAKVLSPESKQARANSFVGTAQYVSPELLTEKSACKSSDLWALGCIIYQLVAGLPPFRAGNEYLIFQKIIKLEYDFPEKFFPKARDLVEKLLVLDATKRLGCEEMEGYGPLKAHPFFESVTWENLHQQTPPKLTAYLPAMSEDDEDCYGNYDNLLSQFGCMQVSSSSSSHSLSASDTGLPQRSGSNIEQYIHDLDSNSFELDLQFSEDEKRLLLEKQAGGNPWHQFVENNLILKMGPVDKRKGLFARRRQLLLTEGPHLYYVDPVNKVLKGEIPWSQELRPEAKNFKTFFVHTPNRTYYLMDPSGNAHKWCRKIQEVWRQRYQSHPDAAVQ
binding [4]: binds
